Source: patent US11319348B2, “Synthetic beta-amyloid peptides capable of forming stable antigenic oligomers” (The Regents of the University of California, priority 2016, dated 2022)

Test system: crosslinked trimer 4
Test: crystal violet absorbance and fluorescence with Aβ trimer
Assay type: binding

What does the source list for CN(C)c1ccc(C(=C2C=CC(=[N+](C)C)C=C2)c2ccc(N(C)C)cc2)cc1 [crystal violet]?
light emission (bound to an Aβ trimer, when stimulated): around 640 nm; peak absorbance (bound within an Aβ trimer): around 600 nm; peak absorbance (crystal violet in solution, no trimer): around 540 nm
